Source: PMC11882939
These are yes or no findings as the source states them, for the method shown. Binding seen in cells or lysates may run through a third protein.

The chains behind the UniProt entries cited, without tags or fusion partners.
UniProt Q9NXR5: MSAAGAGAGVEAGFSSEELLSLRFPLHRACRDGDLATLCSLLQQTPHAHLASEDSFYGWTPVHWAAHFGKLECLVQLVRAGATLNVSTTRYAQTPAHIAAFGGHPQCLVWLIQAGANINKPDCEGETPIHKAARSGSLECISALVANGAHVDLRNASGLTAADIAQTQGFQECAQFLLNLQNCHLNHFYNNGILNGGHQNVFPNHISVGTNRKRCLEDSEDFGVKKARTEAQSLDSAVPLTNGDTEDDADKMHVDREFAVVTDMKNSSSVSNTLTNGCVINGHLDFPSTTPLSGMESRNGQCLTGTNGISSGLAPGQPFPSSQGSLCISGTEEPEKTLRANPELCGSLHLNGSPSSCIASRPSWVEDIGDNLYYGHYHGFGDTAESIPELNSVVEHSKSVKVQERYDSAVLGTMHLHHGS
UniProt P01106: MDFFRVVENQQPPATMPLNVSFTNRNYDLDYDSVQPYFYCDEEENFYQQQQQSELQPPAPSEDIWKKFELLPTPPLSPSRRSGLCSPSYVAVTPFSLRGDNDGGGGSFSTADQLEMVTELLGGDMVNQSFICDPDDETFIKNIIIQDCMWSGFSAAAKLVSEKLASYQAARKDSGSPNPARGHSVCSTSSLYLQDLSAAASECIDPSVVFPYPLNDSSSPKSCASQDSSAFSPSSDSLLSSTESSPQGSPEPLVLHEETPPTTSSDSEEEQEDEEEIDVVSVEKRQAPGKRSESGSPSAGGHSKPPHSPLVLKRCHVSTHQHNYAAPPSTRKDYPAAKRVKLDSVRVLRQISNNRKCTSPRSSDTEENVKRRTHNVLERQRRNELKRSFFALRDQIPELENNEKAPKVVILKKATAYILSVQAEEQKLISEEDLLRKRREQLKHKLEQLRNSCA

Target: Flag-ANKRD10-1 (UniProt Q9NXR5)
Assay: co-IP; 293T cells transfected with HA-MYC and Flag-ANKRD10-1 or Flag-ANKRD10-2 plasmids for 48 h; IP with anti-FLAG or anti-HA antibodies, protein A/G magnetic beads, 12 h at 4 °C, Western blot

For HA-MYC (from UniProt P01106 1-454), the binding was “no binding”.
